For 1 compound, IC50 results are on record in patent publication EP2340832A1, “Morphinan-6-one compounds for the treatment or prevention of neurodegenerative diseases” (Universität Innsbruck, priority 2009, dated 2011).

The assay deals with σ receptors labelled by [^3H]DTG (σ1 + σ2). The experiment in a line: Sigma receptor binding assay, [3H]DTG. Conditions: read-out: IC50 ± SEM [^3H]DTG (σ1 + σ2); guinea pig brain membranes; compounds 1-5 tested up to 10 µM. On the procedure:
Filters were washed three times with 5 ml of ice-cold 10 mM Tris-HCI buffer (pH 8). The bound radioactivity was measured by liquid scintillation counting (Beckman Coulter™ LS6500). […] The values are expressed as the mean ± S.E.M of 2 - 4 independent experiments, each performed in duplicate.

Each structure is given as a SMILES string.

`O=C(CCCN1CCC(O)(c2ccc(Cl)cc2)CC1)c1ccc(F)cc1` [Haloperidol, reference compound]: the IC50 (usually the point on the concentration scale where inhibition reaches its midpoint) is 7.62 ± 1.4 nM.
